# Some of the results follow.
# B1: AFL6 (Aspergillus fumigatus), Q4WKJ1 (protein)
# chain: MSFHLTAEDIRIEDGHRLVARLRNADGDLQDASIDLNTCLGNDNGHFQWDGVDFSHSAQDVHFAIEGGGQVPVLRAQLANQDGEFQDADVNLSERIENINGEFVFH
# Columns and labels:
# Test in all cases: glycan array binding signal (z-score within array); higher = stronger binding
# Details in all cases: glycan notation: IUPAC condensed, linker removed
# [1] = target: Neu5Ac(a2-3)Gal(b1-4)GlcNAc(b1-2)Man(a1-3)[Neu5Ac(a2-6)Gal(b1-4)GlcNAc(b1-2)Man(a1-6)]Man(b1-4)GlcNAc(b1-4)GlcNAc
# Outline: (§1)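 Negative Z-scores can be read as non-binding. The Z-score is calculated within each array and then averaged across arrays of one protein sequence at different concentrations or buffers and across linkers. Arrays, 3228 in all, were curated from the Consortium for Functional Glycomics database and kept only where the protein sequence was available.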
# [2] = target: Neu5Ac(a2-3)Gal(b1-4)GlcNAc(b1-2)[Neu5Ac(a2-3)Gal(b1-4)GlcNAc(b1-4)]Man(a1-3)[GlcNAc(b1-4)][Neu5Ac(a2-3)Gal(b1-4)GlcNAc(b1-2)[Neu5Ac(a2-3)Gal(b1-4)GlcNAc(b1-6)]Man(a1-6)]Man(b1-4)GlcNAc(b1-4)GlcNAc
# Outline: as §1
# [3] = target: Neu5Ac(a2-3)Gal(b1-4)GlcNAc(b1-2)[Neu5Ac(a2-3)Gal(b1-4)GlcNAc(b1-4)]Man(a1-3)[GlcNAc(b1-4)][Neu5Ac(a2-3)Gal(b1-4)GlcNAc(b1-4)Man(a1-6)]Man(b1-4)GlcNAc(b1-4)GlcNAc
# Outline: as §1
# [4] = target: Neu5Ac(a2-3)Gal(b1-4)GlcNAc(b1-2)[Neu5Ac(a2-3)Gal(b1-4)GlcNAc(b1-6)]Man(a1-6)[Neu5Ac(a2-3)Gal(b1-4)GlcNAc(b1-2)Man(a1-3)][GlcNAc(b1-4)]Man(b1-4)GlcNAc(b1-4)GlcNAc
# Outline: as §1
# [5] = target: Neu5Ac(a2-3)Gal(b1-4)GlcNAc(b1-3)Gal
# Outline: as §1
# [6] = target: Neu5Ac(a2-3)Gal(b1-4)GlcNAc(b1-3)Gal(b1-3)GlcNAc
# Outline: as §1
# [7] = target: Neu5Ac(a2-3)Gal(b1-4)GlcNAc(b1-3)Gal(b1-4)GlcNAc
# Outline: as §1
# [8] = target: Neu5Ac(a2-3)Gal(b1-4)GlcNAc(b1-3)Gal(b1-4)GlcNAc(b1-2)Man(a1-3)[Neu5Ac(a2-3)Gal(b1-4)GlcNAc(b1-3)Gal(b1-4)GlcNAc(b1-2)Man(a1-6)]Man(b1-4)GlcNAc(b1-4)GlcNAc
# Outline: as §1
# [9] = target: Neu5Ac(a2-3)Gal(b1-4)GlcNAc(b1-3)Gal(b1-4)GlcNAc(b1-3)Gal(b1-4)GlcNAc
# Outline: as §1
# [10] = target: Neu5Ac(a2-3)Gal(b1-4)GlcNAc(b1-3)Gal(b1-4)GlcNAc(b1-3)Gal(b1-4)GlcNAc(b1-2)Man(a1-3)[Neu5Ac(a2-3)Gal(b1-4)GlcNAc(b1-3)Gal(b1-4)GlcNAc(b1-3)Gal(b1-4)GlcNAc(b1-2)Man(a1-6)]GalNAc
# Outline: as §1
# [11] = target: Neu5Ac(a2-3)Gal(b1-4)GlcNAc(b1-3)Gal(b1-4)GlcNAc(b1-3)GalNAc
# Outline: as §1
# [12] = target: Neu5Ac(a2-3)Gal(b1-4)GlcNAc(b1-3)Gal(b1-4)GlcNAc(b1-3)[Neu5Ac(a2-3)Gal(b1-4)GlcNAc(b1-3)Gal(b1-4)GlcNAc(b1-6)]GalNAc
# Outline: as §1
# [13] = target: Neu5Ac(a2-3)Gal(b1-4)GlcNAc(b1-3)Gal(b1-4)GlcNAc(b1-6)[Gal(b1-3)]GalNAc
# Outline: as §1
# [14] = target: Neu5Ac(a2-3)Gal(b1-4)GlcNAc(b1-3)Gal(b1-4)[Fuc(a1-3)]GlcNAc
# Outline: as §1
# [15] = target: Neu5Ac(a2-3)Gal(b1-4)GlcNAc(b1-3)GalNAc
# Outline: as §1
# [16] = target: Neu5Ac(a2-3)Gal(b1-4)GlcNAc(b1-3)[Neu5Ac(a2-3)Gal(b1-4)GlcNAc(b1-6)]GalNAc
# Outline: as §1
# [17] = target: Neu5Ac(a2-3)Gal(b1-4)GlcNAc(b1-6)GalNAc
# Outline: as §1
# [18] = target: Neu5Ac(a2-3)Gal(b1-4)GlcNAc(b1-6)[Gal(b1-3)]GalNAc
# Outline: as §1
# [19] = target: Neu5Ac(a2-3)Gal(b1-4)GlcNAc(b1-6)[Neu5Ac(a2-3)Gal(b1-3)]GalNAc
# Outline: as §1
# [20] = target: Neu5Ac(a2-3)Gal(b1-4)GlcNAc6S
# Outline: as §1
# [21] = target: Neu5Ac(a2-3)Gal(b1-4)[Fuc(a1-3)]GlcNAc
# Outline: as §1
# [22] = target: Neu5Ac(a2-3)Gal(b1-4)[Fuc(a1-3)]GlcNAc(b1-2)Man
# Outline: as §1
# [23] = target: Neu5Ac(a2-3)Gal(b1-4)[Fuc(a1-3)]GlcNAc(b1-3)Gal
# Outline: as §1
# [24] = target: Neu5Ac(a2-3)Gal(b1-4)[Fuc(a1-3)]GlcNAc(b1-3)Gal(b1-4)GlcNAc
# Outline: as §1
# [25] = target: Neu5Ac(a2-3)Gal(b1-4)[Fuc(a1-3)]GlcNAc(b1-3)Gal(b1-4)[Fuc(a1-3)]GlcNAc(b1-3)Gal(b1-4)[Fuc(a1-3)]GlcNAc
# Outline: as §1
# [26] = target: Neu5Ac(a2-3)Gal(b1-4)[Fuc(a1-3)]GlcNAc(b1-3)GalNAc
# Outline: as §1
# [27] = target: Neu5Ac(a2-3)Gal(b1-4)[Fuc(a1-3)]GlcNAc(b1-6)[Gal(b1-3)]GalNAc
# Outline: as §1
# [28] = target: Neu5Ac(a2-3)Gal(b1-4)[Fuc(a1-3)]GlcNAc(b1-6)[Neu5Ac(a2-3)Gal(b1-3)]GalNAc
# Outline: as §1
# [29] = target: Neu5Ac(a2-3)Gal(b1-4)[Fuc(a1-3)]GlcNAc6S
# Outline: as §1
# [30] = target: Neu5Ac(a2-3)Gal6S(b1-4)GlcNAc
# Outline: as §1
# [31] = target: Neu5Ac(a2-3)Gal6S(b1-4)[Fuc(a1-3)]GlcNAc
# Outline: as §1
# Neu5Ac(a2-3)GalNAc = target: Neu5Ac(a2-3)GalNAc
# Outline: as §1
# [32] = target: Neu5Ac(a2-3)GalNAc(b1-4)GlcNAc
# Outline: as §1
# [33] = target: Neu5Ac(a2-3)[GalNAc(b1-4)]Gal(b1-4)Glc
# Outline: as §1
# [34] = target: Neu5Ac(a2-3)[GalNAc(b1-4)]Gal(b1-4)GlcNAc
# Outline: as §1
# [35] = target: Neu5Ac(a2-3)[GalNAc(b1-4)]Gal(b1-4)GlcNAc(b1-3)GalNAc
# Outline: as §1
# [36] = target: Neu5Ac(a2-3)[Neu5Ac(a2-6)]GalNAc
# Outline: as §1
# Neu5Ac(a2-6)Gal = target: Neu5Ac(a2-6)Gal
# Outline: as §1
# [37] = target: Neu5Ac(a2-6)Gal(b1-3)GlcNAc(b1-3)[Gal(b1-4)GlcNAc(b1-6)]Gal(b1-4)Glc
# Outline: as §1
# Neu5Ac(a2-6)Gal(b1-4)Glc = target: Neu5Ac(a2-6)Gal(b1-4)Glc
# Outline: as §1
# [38] = target: Neu5Ac(a2-6)Gal(b1-4)GlcNAc
# Outline: as §1
# [39] = target: Neu5Ac(a2-6)Gal(b1-4)GlcNAc(b1-2)Man
# Outline: as §1
# [40] = target: Neu5Ac(a2-6)Gal(b1-4)GlcNAc(b1-2)Man(a1-3)Man(b1-4)GlcNAc(b1-4)GlcNAc
# Outline: as §1
# [41] = target: Neu5Ac(a2-6)Gal(b1-4)GlcNAc(b1-2)Man(a1-3)[Gal(b1-4)GlcNAc(b1-2)Man(a1-6)]Man(b1-4)GlcNAc(b1-4)GlcNAc
# Outline: as §1
# [42] = target: Neu5Ac(a2-6)Gal(b1-4)GlcNAc(b1-2)Man(a1-3)[GlcNAc(b1-2)Man(a1-6)]Man(b1-4)GlcNAc(b1-4)GlcNAc
# Outline: as §1
binder,measurement,setting,value
B1,glycan array binding signal (z-score),[1],-0.427
same,glycan array binding signal (z-score),[2],-0.117
same,glycan array binding signal (z-score),[3],0.321
same,glycan array binding signal (z-score),[4],-0.68
same,glycan array binding signal (z-score),[5],-0.446
same,glycan array binding signal (z-score),[6],-0.105
same,glycan array binding signal (z-score),[7],-0.632
same,glycan array binding signal (z-score),[8],0.526
same,glycan array binding signal (z-score),[9],-0.181
same,glycan array binding signal (z-score),[10],4.83
same,glycan array binding signal (z-score),[11],-0.001
same,glycan array binding signal (z-score),[12],-0.017
same,glycan array binding signal (z-score),[13],-0.146
same,glycan array binding signal (z-score),[14],-0.325
same,glycan array binding signal (z-score),[15],-0.869
same,glycan array binding signal (z-score),[16],-0.381
same,glycan array binding signal (z-score),[17],0.04
same,glycan array binding signal (z-score),[18],1.09
same,glycan array binding signal (z-score),[19],-0.203
same,glycan array binding signal (z-score),[20],-0.19
same,glycan array binding signal (z-score),[21],-0.52
same,glycan array binding signal (z-score),[22],0.108
same,glycan array binding signal (z-score),[23],-0.36
same,glycan array binding signal (z-score),[24],0.001
same,glycan array binding signal (z-score),[25],-0.489
same,glycan array binding signal (z-score),[26],0.871
same,glycan array binding signal (z-score),[27],-0.324
same,glycan array binding signal (z-score),[28],0.974
same,glycan array binding signal (z-score),[29],-0.407
same,glycan array binding signal (z-score),[30],0.324
same,glycan array binding signal (z-score),[31],-0.72
same,glycan array binding signal (z-score),Neu5Ac(a2-3)GalNAc,-0.183
same,glycan array binding signal (z-score),[32],-0.053
same,glycan array binding signal (z-score),[33],0.054
same,glycan array binding signal (z-score),[34],-0.458
same,glycan array binding signal (z-score),[35],-0.263
same,glycan array binding signal (z-score),[36],-0.403
same,glycan array binding signal (z-score),Neu5Ac(a2-6)Gal,-0.393
same,glycan array binding signal (z-score),[37],-0.324
same,glycan array binding signal (z-score),Neu5Ac(a2-6)Gal(b1-4)Glc,-0.418
same,glycan array binding signal (z-score),[38],-0.308
same,glycan array binding signal (z-score),[39],0.222
same,glycan array binding signal (z-score),[40],0.065
same,glycan array binding signal (z-score),[41],0.015
same,glycan array binding signal (z-score),[42],0.545

# Reprinted at random: two records from the list.
binder,measurement,setting,value
B1,glycan array binding signal (z-score),[23],-0.36
same,glycan array binding signal (z-score),Neu5Ac(a2-6)Gal,-0.393
